Data reported in publication PMC3701075.
These are yes or no findings as the source states them, for the method shown. In cells and extracts the contact can be indirect. Some binding calls cover weakened binding; strength is not graded here.

Experiments:
[1] = biological target: His-tagged RP1 wild type protein (UniProt Q15555); test: pull-down; His-tagged RP1 isolated with Ni-NTA-agarose beads from lysates of stably expressing HEK293 cells; washing with increasing PBS/Tween (0%-0.3%); blots probed with CK2 subunit antibodies; the paper calls it co-immunoprecipitation
[2] = biological target: protein kinase CK2 (human (endogenous in HEK293)) (UniProt P68400+P67870); test: co-IP; reverse experiment: CK2 antibodies used for precipitation from HEK293 lysate, membrane probed with RP1 antibody detecting endogenous RP1; washing 0.01% and 0.3% Tween/PBS

Substance | binding [1] | binding [2]
protein kinase CK2 (from UniProt P68400 1-391; P67870 1-215) (complex) | binds | –
endogenous RP1 (from UniProt Q15555 1-327) | – | binds
